Data: the supplement of paper PMC10849652
This is one part of the list. Residues, ends and D or L forms follow the SMILES beside them. *: point of attachment. Cbz = O=C(OCc1ccccc1)*

The chains behind the UniProt entries cited, without tags or fusion partners. Where a name states a change or a piece, a line headed by the entry shows the natural chain unless it says otherwise.
UniProt O75807, whole entry, looked up: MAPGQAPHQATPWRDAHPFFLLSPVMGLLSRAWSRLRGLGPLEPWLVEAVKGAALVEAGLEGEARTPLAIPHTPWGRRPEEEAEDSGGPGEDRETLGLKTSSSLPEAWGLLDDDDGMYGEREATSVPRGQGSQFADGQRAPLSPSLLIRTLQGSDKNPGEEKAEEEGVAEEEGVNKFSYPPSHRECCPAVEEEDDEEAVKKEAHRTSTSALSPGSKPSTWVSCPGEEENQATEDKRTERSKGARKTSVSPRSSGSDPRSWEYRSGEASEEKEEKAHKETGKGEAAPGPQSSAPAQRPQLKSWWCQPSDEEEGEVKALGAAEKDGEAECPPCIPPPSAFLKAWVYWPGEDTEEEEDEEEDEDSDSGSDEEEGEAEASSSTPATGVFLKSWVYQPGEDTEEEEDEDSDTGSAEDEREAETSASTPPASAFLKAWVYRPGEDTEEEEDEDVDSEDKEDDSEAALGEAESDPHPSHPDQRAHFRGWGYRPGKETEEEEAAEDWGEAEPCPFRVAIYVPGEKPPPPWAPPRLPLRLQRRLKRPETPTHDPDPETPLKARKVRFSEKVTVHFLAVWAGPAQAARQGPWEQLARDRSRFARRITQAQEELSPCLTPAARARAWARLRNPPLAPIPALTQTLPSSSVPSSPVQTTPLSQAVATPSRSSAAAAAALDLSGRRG
UniProt O15355: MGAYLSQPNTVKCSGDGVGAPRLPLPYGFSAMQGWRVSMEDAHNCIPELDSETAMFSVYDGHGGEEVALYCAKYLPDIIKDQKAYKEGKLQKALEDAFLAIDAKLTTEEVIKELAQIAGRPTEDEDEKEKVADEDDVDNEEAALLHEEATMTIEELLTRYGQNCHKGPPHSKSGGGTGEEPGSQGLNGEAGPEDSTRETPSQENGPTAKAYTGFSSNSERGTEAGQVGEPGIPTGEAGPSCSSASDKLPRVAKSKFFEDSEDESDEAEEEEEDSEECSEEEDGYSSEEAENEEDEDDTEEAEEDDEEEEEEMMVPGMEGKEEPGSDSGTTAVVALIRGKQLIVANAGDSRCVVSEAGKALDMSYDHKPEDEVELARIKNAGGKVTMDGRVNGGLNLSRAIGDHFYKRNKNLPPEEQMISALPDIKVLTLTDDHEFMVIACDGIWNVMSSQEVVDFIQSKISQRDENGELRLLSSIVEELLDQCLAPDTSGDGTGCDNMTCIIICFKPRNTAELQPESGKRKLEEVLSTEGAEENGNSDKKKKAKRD
UniProt P07478, whole entry, looked up: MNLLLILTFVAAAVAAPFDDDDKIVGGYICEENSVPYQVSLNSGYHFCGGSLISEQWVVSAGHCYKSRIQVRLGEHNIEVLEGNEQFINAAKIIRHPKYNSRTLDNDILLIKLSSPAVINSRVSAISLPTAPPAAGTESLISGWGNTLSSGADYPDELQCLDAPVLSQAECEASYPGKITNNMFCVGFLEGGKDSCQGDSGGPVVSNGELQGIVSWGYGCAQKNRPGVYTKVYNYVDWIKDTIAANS
UniProt P50897: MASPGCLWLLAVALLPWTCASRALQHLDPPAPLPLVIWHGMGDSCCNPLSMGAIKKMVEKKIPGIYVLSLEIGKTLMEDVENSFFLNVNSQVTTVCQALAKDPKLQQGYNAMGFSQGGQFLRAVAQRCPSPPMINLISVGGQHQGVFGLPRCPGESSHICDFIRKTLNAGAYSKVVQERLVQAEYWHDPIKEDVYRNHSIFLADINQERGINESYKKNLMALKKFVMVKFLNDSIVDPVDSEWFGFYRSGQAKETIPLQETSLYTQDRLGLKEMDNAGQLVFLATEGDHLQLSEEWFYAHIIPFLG
UniProt Q99633: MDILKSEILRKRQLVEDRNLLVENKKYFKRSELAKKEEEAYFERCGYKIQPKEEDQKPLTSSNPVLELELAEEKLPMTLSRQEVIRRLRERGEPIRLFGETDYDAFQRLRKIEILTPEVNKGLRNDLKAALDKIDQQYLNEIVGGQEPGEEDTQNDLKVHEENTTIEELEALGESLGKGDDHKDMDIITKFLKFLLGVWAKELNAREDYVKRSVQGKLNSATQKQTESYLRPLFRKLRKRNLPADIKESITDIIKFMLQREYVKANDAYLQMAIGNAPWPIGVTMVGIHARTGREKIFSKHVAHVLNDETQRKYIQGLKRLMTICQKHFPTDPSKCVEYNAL
UniProt Q96A00: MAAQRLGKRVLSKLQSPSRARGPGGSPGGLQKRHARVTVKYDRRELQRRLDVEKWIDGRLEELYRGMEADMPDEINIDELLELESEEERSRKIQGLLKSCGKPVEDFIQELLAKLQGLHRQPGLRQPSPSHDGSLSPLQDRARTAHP
UniProt P49643: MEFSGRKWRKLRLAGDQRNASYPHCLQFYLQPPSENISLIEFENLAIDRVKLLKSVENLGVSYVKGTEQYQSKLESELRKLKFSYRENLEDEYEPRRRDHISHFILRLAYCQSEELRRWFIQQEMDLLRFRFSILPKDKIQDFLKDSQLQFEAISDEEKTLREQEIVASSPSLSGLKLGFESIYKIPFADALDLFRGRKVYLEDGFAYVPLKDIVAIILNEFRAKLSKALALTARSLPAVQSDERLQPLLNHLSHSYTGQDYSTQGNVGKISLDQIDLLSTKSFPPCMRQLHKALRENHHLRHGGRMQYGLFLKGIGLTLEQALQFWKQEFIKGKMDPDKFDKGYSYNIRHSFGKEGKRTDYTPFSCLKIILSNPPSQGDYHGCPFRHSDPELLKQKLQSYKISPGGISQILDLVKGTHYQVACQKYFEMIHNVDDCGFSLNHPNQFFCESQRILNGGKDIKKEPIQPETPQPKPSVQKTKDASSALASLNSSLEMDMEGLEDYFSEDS
UniProt O94906: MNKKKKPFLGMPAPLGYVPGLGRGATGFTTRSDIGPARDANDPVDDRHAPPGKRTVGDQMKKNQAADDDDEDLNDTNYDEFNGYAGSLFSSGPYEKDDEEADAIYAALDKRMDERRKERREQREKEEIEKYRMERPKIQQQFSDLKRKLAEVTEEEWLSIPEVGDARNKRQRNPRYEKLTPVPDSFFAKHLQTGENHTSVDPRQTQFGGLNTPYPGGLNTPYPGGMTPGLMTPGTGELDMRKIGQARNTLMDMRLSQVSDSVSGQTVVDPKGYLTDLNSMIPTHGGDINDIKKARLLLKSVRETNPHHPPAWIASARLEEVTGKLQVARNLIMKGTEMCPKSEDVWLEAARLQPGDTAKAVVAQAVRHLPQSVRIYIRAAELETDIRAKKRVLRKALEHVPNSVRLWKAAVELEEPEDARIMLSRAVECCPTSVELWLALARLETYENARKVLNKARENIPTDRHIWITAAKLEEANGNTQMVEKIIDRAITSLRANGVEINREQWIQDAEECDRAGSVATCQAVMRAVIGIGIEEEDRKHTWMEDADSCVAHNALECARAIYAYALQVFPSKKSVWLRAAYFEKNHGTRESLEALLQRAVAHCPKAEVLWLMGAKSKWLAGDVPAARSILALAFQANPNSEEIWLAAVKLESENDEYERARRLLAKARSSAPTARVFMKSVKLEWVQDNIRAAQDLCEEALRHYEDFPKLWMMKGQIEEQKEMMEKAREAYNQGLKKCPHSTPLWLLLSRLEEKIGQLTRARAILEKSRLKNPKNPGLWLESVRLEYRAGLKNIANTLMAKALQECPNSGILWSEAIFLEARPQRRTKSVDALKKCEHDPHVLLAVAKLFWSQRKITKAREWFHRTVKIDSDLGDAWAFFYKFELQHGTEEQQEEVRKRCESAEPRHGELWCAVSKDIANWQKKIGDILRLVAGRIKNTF
UniProt Q9NVM4: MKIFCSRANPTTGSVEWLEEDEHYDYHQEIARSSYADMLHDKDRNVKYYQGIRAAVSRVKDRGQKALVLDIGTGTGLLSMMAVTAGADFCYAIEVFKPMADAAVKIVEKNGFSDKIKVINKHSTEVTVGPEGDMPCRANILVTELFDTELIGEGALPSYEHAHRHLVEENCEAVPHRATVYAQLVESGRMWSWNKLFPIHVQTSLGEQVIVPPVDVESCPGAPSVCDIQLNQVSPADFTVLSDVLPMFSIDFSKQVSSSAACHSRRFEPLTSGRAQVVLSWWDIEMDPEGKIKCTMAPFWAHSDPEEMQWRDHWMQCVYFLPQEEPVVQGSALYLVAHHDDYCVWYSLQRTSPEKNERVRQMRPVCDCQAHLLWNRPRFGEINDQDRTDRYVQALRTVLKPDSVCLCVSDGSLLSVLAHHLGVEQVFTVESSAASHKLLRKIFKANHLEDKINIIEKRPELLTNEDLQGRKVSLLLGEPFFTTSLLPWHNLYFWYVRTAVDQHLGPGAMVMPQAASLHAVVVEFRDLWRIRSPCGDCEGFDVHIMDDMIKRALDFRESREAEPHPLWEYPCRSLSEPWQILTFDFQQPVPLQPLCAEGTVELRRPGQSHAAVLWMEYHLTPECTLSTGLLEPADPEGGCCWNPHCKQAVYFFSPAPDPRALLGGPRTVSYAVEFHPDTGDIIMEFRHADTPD
UniProt Q6ZMI0: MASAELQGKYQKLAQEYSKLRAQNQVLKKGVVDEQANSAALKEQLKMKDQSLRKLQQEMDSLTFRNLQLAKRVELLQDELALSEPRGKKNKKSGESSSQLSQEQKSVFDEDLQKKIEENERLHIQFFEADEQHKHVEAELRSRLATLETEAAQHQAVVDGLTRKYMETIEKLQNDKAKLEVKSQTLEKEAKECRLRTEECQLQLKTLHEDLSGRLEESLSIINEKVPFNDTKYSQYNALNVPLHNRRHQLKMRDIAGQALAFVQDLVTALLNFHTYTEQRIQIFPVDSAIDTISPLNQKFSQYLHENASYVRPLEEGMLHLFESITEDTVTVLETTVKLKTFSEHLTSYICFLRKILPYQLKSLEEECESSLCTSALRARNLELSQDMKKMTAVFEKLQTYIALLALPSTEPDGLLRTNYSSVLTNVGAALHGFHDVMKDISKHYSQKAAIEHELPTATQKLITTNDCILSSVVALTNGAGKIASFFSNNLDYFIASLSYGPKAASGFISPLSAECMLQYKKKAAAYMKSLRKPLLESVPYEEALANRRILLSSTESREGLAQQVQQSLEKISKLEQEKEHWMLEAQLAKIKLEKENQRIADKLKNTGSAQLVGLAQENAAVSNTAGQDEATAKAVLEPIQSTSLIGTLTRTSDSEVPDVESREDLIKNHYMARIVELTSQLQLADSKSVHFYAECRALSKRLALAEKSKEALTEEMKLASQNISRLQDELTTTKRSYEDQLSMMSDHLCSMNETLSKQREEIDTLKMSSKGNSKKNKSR

Tests used:
Assay in all cases: log2 fold change, soluble protein after heating vs DMSO (PISA); higher = thermal stabilisation; K562 cells, 10 uM, 30 min; active = over 0.2 and 3.5 SD of the protein, either way, in both replicates (recomputed)
erlotinib = compound: C#Cc1cccc(Nc2ncnc3cc(OCCOC)c(OCCOC)cc23)c1 [erlotinib]
How it was run: (§1)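 For each measurement, 10 μM compound was applied for 30 min to K562 cells at 2×10^6 cells/mL. Aliquots were heated for 3 min across 48°C-58°C, pooled, and extracted in PBS with 0.5% NP-40 at 4°C; the supernatant after 21,000xg for 90 min was soluble protein. This was quantified by TMTpro 16plex LC-MS/MS with channel sums equalised, and thermal stability was reported relative to control samples from duplicates, on a log2 fold-change scale.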

[1] = compound: C1=CC(=C(C=C1Cl)C2=NC3=NC=CN=C3C(=N2)NC4=CC=NC=C4)F
How it was run: as §1

[2] = compound: C1=CC(=CC=C1C2=NC3=C(N2)C=C(C=C3)C(=O)N)OC4=CC=C(C=C4)Cl
How it was run: as §1

IRAK-1-4 Inhibitor I = compound: C1COCCN1CCN2C3=CC=CC=C3N=C2NC(=O)C4=CC(=CC=C4)[N+](=O)[O-] [IRAK-1-4 Inhibitor I]
How it was run: as §1

[3] = compound: CC(C)(O)CC(=O)NCCn1ccc2ncnc(Nc3ccc(Oc4cccc(C(F)(F)F)c4)c(Cl)c3)c21
How it was run: as §1

[4] = compound: CC(C)C1=C2N=C(C=C(N2N=C1)NCC3=CC=CC=C3)NCCCCCCN
How it was run: as §1

pinometostat = compound: CC(C)N(C[C@H]1O[C@@H](n2cnc3c(N)ncnc32)[C@H](O)[C@@H]1O)[C@H]1C[C@@H](CCc2nc3cc(C(C)(C)C)ccc3[nH]2)C1 [pinometostat]
How it was run: as §1

[5] = compound: C/C(=N\NC(=O)C1=CC(=CC=C1)S(=O)(=O)N2CCOCC2)/C3=C(C=CC(=C3)Cl)O
How it was run: as §1

[6] = compound: C1=CC2=C(C=CC(=C2)/C=C\3/C(=O)NC(=NCC4=CC=CS4)S3)N=C1
How it was run: as §1

[7] = compound: C1=CC2=NC=CN=C2C=C1/C=C/3\C(=O)NC(=O)S3
How it was run: as §1

[8] = compound: C1=CC=C(C=C1)C2=NC(=C(N2)C3=CC=NC=C3)C4=CC(=C(C=C4)Cl)O
How it was run: as §1

[9] = compound: C1=CC=C2C(=C1)C3=NNC4=CC=CC(=C43)C2=O
How it was run: as §1

[10] = compound: C1CCN(C1)C(=O)NC2=CC=CC(=C2)NC3=NC=C(C(=N3)NCCC4=CN=CN4)Br
How it was run: as §1

[11] = compound: C1CN(CCC1(CC2=CC=C(C=C2)Cl)N)C3=NC=NC4=C3C=CN4
How it was run: as §1

ibrutinib = compound: C=CC(=O)N1CCC[C@@H](n2nc(-c3ccc(Oc4ccccc4)cc3)c3c(N)ncnc32)C1 [ibrutinib]
How it was run: as §1

[12] = compound: CC(=O)c1cnc2ccc(-c3cc(Cl)c(O)c(Cl)c3)nc2c1N[C@H]1CC[C@H](CN(C)C)CC1
How it was run: as §1

ralimetinib = compound: CC(C)(C)Cn1c(N)nc2ccc(-c3[nH]c(C(C)(C)C)nc3-c3ccc(F)cc3)nc21 [ralimetinib]
How it was run: as §1

[13] = compound: CC(C)C[C@@H](C=O)NC(=O)[C@H](CC(C)C)NC(=O)[C@H](CC(C)C)NC(=O)OCc1ccccc1
How it was run: as §1

[14] = compound: CC1=C(C2=C(C=C1)C(=O)C3=CC=CC=C3N2CCCN)C
How it was run: as §1

[15] = compound: CC1=C(C(CC(=O)N1)C2=CC=C(C=C2)C(F)(F)F)C(=O)NC3=C(C=C4C(=C3)C=NN4)F
How it was run: as §1

Row | Target | log2 fold change (erlotinib) | log2 fold change [1] | log2 fold change [2] | log2 fold change (IRAK-1-4 Inhibitor I) | log2 fold change [3] | log2 fold change [4] | log2 fold change (pinometostat) | log2 fold change [5] | log2 fold change [6] | log2 fold change [7] | log2 fold change [8] | log2 fold change [9] | log2 fold change [10] | log2 fold change [11] | log2 fold change (ibrutinib) | log2 fold change [12] | log2 fold change (ralimetinib) | log2 fold change [13] | log2 fold change [14] | log2 fold change [15]
1 | PPP1R15A (UniProt O75807) | inactive: -0.018 | inactive: 0.042 | inactive: -0.112 | inactive: 0.092 | inactive: 0.129 | inactive: 0.287 | inactive: -0.033 |  |  |  |  |  |  |  |  |  |  |  |  | 
2 | PPM1G (UniProt O15355) | inactive: 0.117 | inactive: 0.009 | inactive: -0.017 | inactive: -0.095 | inactive: -0.17 | inactive: -0.223 | inactive: -0.067 | inactive: 0.118 | inactive: 0.024 | inactive: 0.035 | inactive: -0.052 | inactive: -0.022 | inactive: -0.011 | inactive: -0.065 | inactive: -0.102 | inactive: -0.098 | inactive: -0.044 | inactive: 0.088 | inactive: -0.002 | 
3 | PRSS2 (UniProt P07478) | inactive: 0.142 | inactive: 0.271 | inactive: -0.065 | inactive: 0 | inactive: 0.068 | inactive: -0.09 | inactive: 0.06 | inactive: -0.045 | inactive: 0.023 | inactive: -0.016 |  | inactive: -0.047 | inactive: 0.215 | inactive: 0.009 | inactive: 0.099 | inactive: -0.024 |  |  | inactive: -0.294 | inactive: -0.048
4 | PPT1 (UniProt P50897) | inactive: 0.01 | inactive: 0.018 | inactive: -0.003 | inactive: 0.041 | inactive: 0.039 | active: -0.406 | inactive: -0.036 | inactive: -0.011 | inactive: 0.04 | inactive: 0.007 | inactive: 0.01 | inactive: 0.024 | inactive: 0.036 | inactive: -0.009 | inactive: 0.049 | inactive: 0.008 | inactive: -0.072 | inactive: 0.048 | inactive: -0.06 | 
5 | PRPF18 (UniProt Q99633) | inactive: 0.07 | inactive: 0.024 | inactive: -0.183 | inactive: 0.036 | inactive: -0.191 | inactive: 0.032 | inactive: -0.107 | inactive: 0.11 | inactive: 0.084 | inactive: -0.031 |  | inactive: -0.051 | inactive: -0.28 | inactive: 0.143 | inactive: -0.045 | inactive: -0.203 |  |  | inactive: -0.048 | inactive: -0.018
6 | PPP1R14A (UniProt Q96A00) | inactive: 0.047 | inactive: 0.004 | inactive: 0.063 | inactive: 0.041 | inactive: -0.009 | inactive: 0.126 | inactive: -0.065 | inactive: 0.004 | inactive: -0.036 | inactive: -0.001 | active: 0.341 | inactive: 0.004 | inactive: 0.016 | inactive: 0.015 | inactive: -0.01 | inactive: 0.036 | inactive: 0.218 | inactive: -0.122 | inactive: -0.073 | 
7 | PRIM2 (UniProt P49643) | inactive: 0.004 | inactive: 0.018 | inactive: 0.015 | inactive: -0.043 | inactive: -0.265 | inactive: -0.213 | inactive: 0.005 | inactive: 0.038 | inactive: 0.061 | inactive: 0.009 | inactive: 0.035 | inactive: 0.035 | inactive: -0.023 | inactive: -0.071 | inactive: -0.04 | inactive: -0.065 | inactive: -0.058 | inactive: 0.074 | inactive: 0.059 | 
8 | PRPF6 (UniProt O94906) | inactive: -0.122 | inactive: -0.228 | inactive: 0.051 | inactive: 0.199 | inactive: 0.125 | inactive: -0.526 | inactive: -0.097 | inactive: 0.058 | inactive: -0.072 | inactive: -0.214 | inactive: -0.049 | inactive: -0.168 | inactive: -0.025 | inactive: -0.245 | inactive: 0.002 | inactive: 0.044 | inactive: 0.128 | inactive: 0.134 | inactive: -0.055 | 
9 | PRKCA (UniProt P17252) | inactive: 0.117 | inactive: 0.04 | inactive: -0.009 | inactive: 0.012 | inactive: -0.02 | inactive: -0.035 | inactive: -0.015 | inactive: 0.041 | inactive: 0.127 | inactive: 0.016 | inactive: -0.019 | inactive: -0.006 | inactive: 0.008 | inactive: -0.074 | inactive: -0.02 | active: -0.595 | inactive: -0.039 | inactive: 0.104 | inactive: 0.064 | 
10 | PRMT7 (UniProt Q9NVM4) | inactive: 0.093 | inactive: 0.064 | inactive: -0.017 | inactive: 0.044 | inactive: 0.048 | active: -0.329 | inactive: 0.074 | inactive: 0.132 | inactive: 0.142 | inactive: 0.018 | inactive: -0.109 | inactive: -0.039 | inactive: 0.031 | inactive: -0.031 | inactive: -0.061 | inactive: -0.004 | inactive: -0.005 | inactive: -0.033 | inactive: -0.065 | 
11 | PPP1R21 (UniProt Q6ZMI0) | inactive: -0.056 | inactive: 0.171 | inactive: 0.016 |  | inactive: -0.15 | inactive: 0.026 |  | inactive: 0.072 | inactive: 0.097 | inactive: -0.036 |  | inactive: 0.033 |  |  | inactive: 0.057 | inactive: -0.078 |  |  |  | inactive: 0.131
